± gives the standard deviation of the averaged measurements. This is a selection; strong and weak results do not stand in their true shares. Most entries show no effect beyond the scatter of the controls.
compound: Nc1ncnc2c1ncn2[C@@H]1O[C@H](COP(=O)(O)OP(=O)(O)OP(=O)(O)O)[C@@H](O)[C@H]1O [adenosine triphosphate]; assay: NP40-soluble protein abundance relative to vehicle (solubility fold change) (ratio); higher = more soluble protein in presence of ATP; conditions: concentration: 0.1mM
Outline: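 Values are fold changes against the detergent-processed vehicle, based on vsn-normalised intensities. Jurkat crude lysate was treated at eight concentrations from 0.1 to 10 mM (10 min at room temperature, then 3 min at 37 °C), solubilised with 0.8% NP40 and benzonase, ultracentrifuged and analysed by TMT-labelled LC-MS/MS over three independent experiments.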

The chains behind the UniProt entries cited, without tags or fusion partners. Where a name states a change or a piece, a line headed by the entry shows the natural chain unless it says otherwise.
UniProt Q96LD8: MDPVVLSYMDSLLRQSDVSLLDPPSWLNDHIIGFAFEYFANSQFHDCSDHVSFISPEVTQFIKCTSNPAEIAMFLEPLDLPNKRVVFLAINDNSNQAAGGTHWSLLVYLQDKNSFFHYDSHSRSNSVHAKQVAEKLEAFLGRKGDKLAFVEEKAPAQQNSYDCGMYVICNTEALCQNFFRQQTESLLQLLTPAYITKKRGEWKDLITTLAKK
UniProt Q96IX5: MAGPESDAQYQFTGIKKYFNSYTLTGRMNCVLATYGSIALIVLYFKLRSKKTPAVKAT
UniProt Q96JM3: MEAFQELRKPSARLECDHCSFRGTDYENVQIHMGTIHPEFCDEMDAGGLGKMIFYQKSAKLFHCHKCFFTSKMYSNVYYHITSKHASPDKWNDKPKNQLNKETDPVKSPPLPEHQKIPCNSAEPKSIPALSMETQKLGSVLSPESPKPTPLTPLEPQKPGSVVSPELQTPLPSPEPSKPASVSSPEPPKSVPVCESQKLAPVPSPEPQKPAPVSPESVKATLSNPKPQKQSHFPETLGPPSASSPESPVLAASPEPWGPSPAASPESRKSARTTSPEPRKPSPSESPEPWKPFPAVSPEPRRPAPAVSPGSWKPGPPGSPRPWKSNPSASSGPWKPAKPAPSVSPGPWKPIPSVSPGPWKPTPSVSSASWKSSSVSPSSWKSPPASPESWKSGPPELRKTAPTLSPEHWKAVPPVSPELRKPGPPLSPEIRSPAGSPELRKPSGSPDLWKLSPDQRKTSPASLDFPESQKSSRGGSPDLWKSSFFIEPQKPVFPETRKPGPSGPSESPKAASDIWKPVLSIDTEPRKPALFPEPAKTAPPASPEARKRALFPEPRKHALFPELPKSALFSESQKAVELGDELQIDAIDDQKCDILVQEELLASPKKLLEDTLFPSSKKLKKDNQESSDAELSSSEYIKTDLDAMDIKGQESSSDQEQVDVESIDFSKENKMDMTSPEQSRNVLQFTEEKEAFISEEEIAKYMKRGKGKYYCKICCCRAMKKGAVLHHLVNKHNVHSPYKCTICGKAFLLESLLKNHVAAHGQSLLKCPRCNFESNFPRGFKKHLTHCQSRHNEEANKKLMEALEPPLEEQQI
UniProt Q96RS0: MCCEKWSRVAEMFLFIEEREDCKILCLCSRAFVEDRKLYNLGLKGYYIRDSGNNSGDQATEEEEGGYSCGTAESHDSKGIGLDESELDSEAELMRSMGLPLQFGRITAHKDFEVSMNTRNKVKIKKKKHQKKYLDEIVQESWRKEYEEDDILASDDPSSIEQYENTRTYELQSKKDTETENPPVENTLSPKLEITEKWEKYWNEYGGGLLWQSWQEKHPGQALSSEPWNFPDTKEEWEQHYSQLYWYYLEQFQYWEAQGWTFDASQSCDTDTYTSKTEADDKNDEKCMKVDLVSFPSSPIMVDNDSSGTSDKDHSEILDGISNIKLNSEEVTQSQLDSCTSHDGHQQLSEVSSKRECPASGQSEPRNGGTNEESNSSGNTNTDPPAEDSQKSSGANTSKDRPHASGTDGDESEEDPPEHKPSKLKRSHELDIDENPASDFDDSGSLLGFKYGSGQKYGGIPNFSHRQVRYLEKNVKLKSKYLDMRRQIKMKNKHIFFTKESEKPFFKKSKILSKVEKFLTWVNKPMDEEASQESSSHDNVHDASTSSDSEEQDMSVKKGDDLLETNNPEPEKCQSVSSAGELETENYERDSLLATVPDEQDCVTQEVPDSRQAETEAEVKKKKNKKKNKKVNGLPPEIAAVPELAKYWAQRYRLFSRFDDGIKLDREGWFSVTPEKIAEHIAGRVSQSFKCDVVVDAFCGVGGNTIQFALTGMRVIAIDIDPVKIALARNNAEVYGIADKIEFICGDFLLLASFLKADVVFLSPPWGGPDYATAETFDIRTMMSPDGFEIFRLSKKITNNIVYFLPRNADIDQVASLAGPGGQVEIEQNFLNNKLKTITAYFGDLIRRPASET
UniProt Q96G25: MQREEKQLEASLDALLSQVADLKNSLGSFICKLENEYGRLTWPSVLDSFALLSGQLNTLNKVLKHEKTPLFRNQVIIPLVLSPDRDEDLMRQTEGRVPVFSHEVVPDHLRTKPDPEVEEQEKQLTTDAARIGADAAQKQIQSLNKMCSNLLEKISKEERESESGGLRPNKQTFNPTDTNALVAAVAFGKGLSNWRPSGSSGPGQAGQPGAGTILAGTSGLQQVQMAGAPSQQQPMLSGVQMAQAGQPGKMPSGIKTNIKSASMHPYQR
UniProt Q96SB4, whole entry: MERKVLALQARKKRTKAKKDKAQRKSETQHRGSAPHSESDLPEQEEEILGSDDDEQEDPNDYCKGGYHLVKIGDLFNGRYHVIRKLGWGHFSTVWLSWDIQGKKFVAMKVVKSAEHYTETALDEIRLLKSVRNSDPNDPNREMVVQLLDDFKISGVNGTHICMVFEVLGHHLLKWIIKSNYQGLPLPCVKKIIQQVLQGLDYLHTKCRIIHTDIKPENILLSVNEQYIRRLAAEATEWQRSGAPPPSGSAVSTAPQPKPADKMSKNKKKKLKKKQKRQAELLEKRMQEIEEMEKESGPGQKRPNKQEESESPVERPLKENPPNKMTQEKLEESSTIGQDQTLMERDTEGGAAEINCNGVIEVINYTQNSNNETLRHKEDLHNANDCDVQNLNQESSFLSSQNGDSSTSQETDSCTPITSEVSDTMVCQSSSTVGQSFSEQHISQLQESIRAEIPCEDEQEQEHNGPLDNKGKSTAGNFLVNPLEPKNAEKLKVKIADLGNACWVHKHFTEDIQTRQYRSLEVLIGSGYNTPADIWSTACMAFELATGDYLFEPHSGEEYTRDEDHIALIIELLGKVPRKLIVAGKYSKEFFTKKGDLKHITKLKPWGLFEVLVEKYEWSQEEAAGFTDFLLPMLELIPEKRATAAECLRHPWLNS
UniProt Q96II8: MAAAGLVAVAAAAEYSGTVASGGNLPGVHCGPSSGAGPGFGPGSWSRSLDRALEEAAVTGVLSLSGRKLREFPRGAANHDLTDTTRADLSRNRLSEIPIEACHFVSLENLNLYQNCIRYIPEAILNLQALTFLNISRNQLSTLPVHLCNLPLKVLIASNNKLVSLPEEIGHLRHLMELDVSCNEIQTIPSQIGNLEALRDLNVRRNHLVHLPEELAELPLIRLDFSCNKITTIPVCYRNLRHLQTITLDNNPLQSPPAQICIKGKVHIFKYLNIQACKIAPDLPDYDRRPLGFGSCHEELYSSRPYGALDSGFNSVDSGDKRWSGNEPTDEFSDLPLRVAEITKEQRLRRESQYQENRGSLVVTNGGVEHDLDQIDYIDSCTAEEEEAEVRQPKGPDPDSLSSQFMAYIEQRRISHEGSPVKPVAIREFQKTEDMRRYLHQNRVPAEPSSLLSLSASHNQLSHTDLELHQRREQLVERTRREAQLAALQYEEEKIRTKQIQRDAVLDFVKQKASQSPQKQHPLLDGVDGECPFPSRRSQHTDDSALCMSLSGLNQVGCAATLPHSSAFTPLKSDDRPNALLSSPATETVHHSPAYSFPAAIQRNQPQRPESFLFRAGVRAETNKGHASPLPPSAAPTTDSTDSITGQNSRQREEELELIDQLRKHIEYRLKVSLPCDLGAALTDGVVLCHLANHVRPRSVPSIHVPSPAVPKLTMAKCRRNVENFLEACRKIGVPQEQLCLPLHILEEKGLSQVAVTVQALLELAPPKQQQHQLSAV
UniProt Q96QF0: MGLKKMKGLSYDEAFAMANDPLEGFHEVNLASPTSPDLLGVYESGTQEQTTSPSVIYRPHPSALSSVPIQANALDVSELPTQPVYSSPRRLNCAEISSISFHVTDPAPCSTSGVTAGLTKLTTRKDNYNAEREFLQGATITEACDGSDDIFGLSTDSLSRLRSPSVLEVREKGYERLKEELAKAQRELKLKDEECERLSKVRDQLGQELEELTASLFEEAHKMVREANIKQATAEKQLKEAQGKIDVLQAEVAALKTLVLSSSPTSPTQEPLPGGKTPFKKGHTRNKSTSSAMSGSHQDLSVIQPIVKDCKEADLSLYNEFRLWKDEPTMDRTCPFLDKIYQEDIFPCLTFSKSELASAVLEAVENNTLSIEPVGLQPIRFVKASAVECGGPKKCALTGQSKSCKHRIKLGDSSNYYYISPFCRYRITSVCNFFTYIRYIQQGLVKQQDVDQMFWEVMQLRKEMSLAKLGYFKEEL
UniProt Q96NT0: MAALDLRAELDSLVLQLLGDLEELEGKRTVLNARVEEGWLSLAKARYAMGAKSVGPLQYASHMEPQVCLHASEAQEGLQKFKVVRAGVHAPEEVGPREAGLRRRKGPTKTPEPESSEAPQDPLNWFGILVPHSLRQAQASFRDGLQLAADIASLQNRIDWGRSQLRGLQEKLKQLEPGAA
UniProt Q96BK5: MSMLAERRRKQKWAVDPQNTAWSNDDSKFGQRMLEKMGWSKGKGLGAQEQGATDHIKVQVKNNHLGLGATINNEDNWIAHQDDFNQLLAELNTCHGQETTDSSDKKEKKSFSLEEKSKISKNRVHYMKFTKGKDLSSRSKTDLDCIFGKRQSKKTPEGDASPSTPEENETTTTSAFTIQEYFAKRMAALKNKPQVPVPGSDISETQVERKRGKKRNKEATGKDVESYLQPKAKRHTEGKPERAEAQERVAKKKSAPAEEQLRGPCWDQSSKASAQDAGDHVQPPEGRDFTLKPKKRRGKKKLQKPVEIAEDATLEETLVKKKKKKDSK
UniProt Q96T23: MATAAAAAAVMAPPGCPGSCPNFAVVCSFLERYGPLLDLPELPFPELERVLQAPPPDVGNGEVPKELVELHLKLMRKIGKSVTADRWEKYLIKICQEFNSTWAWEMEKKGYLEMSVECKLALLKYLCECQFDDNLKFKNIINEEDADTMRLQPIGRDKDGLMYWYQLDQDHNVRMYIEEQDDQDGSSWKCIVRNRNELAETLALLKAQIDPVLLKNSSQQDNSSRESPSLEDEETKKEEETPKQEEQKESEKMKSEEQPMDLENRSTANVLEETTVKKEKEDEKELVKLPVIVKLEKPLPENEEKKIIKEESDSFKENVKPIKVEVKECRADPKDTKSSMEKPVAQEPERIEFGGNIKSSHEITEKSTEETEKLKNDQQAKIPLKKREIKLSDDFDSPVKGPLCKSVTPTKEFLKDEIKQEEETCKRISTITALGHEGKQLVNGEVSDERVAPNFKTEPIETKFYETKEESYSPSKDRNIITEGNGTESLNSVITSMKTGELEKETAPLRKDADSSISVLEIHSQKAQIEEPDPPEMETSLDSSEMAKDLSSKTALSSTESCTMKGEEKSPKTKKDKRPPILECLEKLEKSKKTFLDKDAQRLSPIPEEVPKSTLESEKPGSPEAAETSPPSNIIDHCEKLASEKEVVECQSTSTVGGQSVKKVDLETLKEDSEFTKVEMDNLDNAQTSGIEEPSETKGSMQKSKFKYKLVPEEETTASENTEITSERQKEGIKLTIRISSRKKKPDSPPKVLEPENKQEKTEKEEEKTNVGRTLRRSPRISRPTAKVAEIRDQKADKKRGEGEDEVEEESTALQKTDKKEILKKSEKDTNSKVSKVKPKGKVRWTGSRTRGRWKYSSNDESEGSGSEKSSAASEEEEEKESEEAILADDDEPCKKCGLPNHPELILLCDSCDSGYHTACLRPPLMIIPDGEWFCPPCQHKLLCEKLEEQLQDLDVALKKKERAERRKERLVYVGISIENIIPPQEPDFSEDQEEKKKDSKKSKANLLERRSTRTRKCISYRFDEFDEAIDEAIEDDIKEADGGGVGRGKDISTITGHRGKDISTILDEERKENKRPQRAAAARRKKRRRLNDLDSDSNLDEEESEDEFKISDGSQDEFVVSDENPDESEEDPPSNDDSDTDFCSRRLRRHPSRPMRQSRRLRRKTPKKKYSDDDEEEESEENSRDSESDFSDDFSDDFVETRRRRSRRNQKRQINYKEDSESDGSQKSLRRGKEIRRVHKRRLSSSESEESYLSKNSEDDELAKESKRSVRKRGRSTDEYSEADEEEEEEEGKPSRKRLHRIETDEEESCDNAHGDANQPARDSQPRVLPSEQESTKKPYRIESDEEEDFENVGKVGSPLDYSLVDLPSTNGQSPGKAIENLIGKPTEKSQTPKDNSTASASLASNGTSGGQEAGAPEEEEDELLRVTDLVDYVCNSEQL
UniProt Q96GN5: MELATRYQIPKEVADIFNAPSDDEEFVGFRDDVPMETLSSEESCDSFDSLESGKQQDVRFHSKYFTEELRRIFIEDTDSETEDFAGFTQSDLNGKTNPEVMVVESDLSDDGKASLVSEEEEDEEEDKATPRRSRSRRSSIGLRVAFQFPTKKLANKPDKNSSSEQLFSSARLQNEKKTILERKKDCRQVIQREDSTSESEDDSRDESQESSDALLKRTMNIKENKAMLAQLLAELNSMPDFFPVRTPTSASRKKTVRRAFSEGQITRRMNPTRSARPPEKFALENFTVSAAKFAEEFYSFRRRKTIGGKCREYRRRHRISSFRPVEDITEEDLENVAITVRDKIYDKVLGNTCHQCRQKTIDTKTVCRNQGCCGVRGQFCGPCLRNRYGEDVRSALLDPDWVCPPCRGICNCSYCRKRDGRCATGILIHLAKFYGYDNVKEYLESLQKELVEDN

Target	NP40-soluble protein abundance
SENP8 (UniProt Q96LD8)	1.01 ± 0.072
ZNF512B (UniProt Q96KM6)	0.976 ± 0.027
UniProt Q96IX5	0.917 ± 0.17
PPP1R10 (UniProt Q96QC0)	0.982 ± 0.011
ZNF48 (UniProt Q96MX3)	0.978 ± 0.027
UniProt Q96LT9 and related entries	1.1 ± 0.085
PUS7 (UniProt Q96PZ0)	1.02 ± 0.045
UniProt Q96N16 and related entries	0.962 ± 0.085
SPAG5 (UniProt Q96R06)	0.986 ± 0.025
UniProt Q96JM3	0.996 ± 0.043
UniProt Q96HN2-2|Q96HN2	0.937 ± 0.07
TGS1 (UniProt Q96RS0)	0.985 ± 0.014
COG8 (UniProt Q96MW5)	0.959 ± 0.067
UniProt Q96G25 and related entries	0.939 ± 0.13
SRPK1 (UniProt Q96SB4)	1.12 ± 0.054
CDK5RAP3 (UniProt Q96JB5)	0.963 ± 0.035
UniProt Q96II8 and related entries	1.04 ± 0.071
UniProt Q96KB5 and related entries	1.04 ± 0.07
UniProt Q96QF0 and related entries	1.08 ± 0.084

Target	NP40-soluble protein abundance
UniProt Q96NT0 and related entries	0.863 ± 0.098
FAM111A (UniProt Q96PZ2)	1.2 ± 0.21
PINX1 (UniProt Q96BK5)	1.16 ± 0.087
UniProt Q96CN4 and related entries	1.03 ± 0.098
CHMP6 (UniProt Q96FZ7)	0.883 ± 0.081
UniProt Q96F46 and related entries	0.947 ± 0.057
PNKP (UniProt Q96T60)	1.05 ± 0.02
UniProt Q96P11-2	1.041 ± 0.007
UniProt Q96T23 and related entries	1.03 ± 0.013
ITPKC (UniProt Q96DU7)	0.965 ± 0.13
UniProt Q96S19 and related entries	1.03 ± 0.04
ATG4C (UniProt Q96DT6)	0.99 ± 0.018
CCDC124 (UniProt Q96CT7)	0.967 ± 0.14
UniProt Q96GN5 and related entries	0.962 ± 0.071
PGAM5 (UniProt Q96HS1)	0.958 ± 0.048
NSUN4 (UniProt Q96CB9)	0.983 ± 0.042
UniProt Q96EZ8 and related entries	0.975 ± 0.052
MRPL38 (UniProt Q96DV4)	0.95 ± 0.12
UniProt Q96GM8 and related entries	1.06 ± 0.056

same assay, conditions: concentration: 0.5mM

Target	NP40-soluble protein abundance
SENP8 (UniProt Q96LD8)	1.04 ± 0.085
ZNF512B (UniProt Q96KM6)	0.993 ± 0.035
UniProt Q96IX5	0.998 ± 0.33
PPP1R10 (UniProt Q96QC0)	1.01 ± 0.026
ZNF48 (UniProt Q96MX3)	1.02 ± 0.015
UniProt Q96LT9 and related entries	1.35 ± 0.19
PUS7 (UniProt Q96PZ0)	0.996 ± 0.013
UniProt Q96N16 and related entries	1.18 ± 0.08
SPAG5 (UniProt Q96R06)	1.02 ± 0.031
UniProt Q96JM3	1.03 ± 0.069
UniProt Q96HN2-2|Q96HN2	0.972 ± 0.072
TGS1 (UniProt Q96RS0)	1.01 ± 0.089
COG8 (UniProt Q96MW5)	0.925 ± 0.097
UniProt Q96G25 and related entries	0.91 ± 0.095
SRPK1 (UniProt Q96SB4)	1.25 ± 0.088
CDK5RAP3 (UniProt Q96JB5)	0.999 ± 0.056
UniProt Q96II8 and related entries	1.1 ± 0.018
UniProt Q96KB5 and related entries	1.02 ± 0.027
UniProt Q96QF0 and related entries	1.02 ± 0.03

Target	NP40-soluble protein abundance
UniProt Q96NT0 and related entries	0.817 ± 0.14
FAM111A (UniProt Q96PZ2)	1.23 ± 0.17
PINX1 (UniProt Q96BK5)	1.413 ± 0.0073
UniProt Q96CN4 and related entries	1.03 ± 0.077
CHMP6 (UniProt Q96FZ7)	0.869 ± 0.1
UniProt Q96F46 and related entries	0.926 ± 0.027
PNKP (UniProt Q96T60)	1.05 ± 0.047
UniProt Q96P11-2	1.03 ± 0.011
UniProt Q96T23 and related entries	1.28 ± 0.086
ITPKC (UniProt Q96DU7)	0.942 ± 0.046
UniProt Q96S19 and related entries	0.996 ± 0.051
ATG4C (UniProt Q96DT6)	1.03 ± 0.09
CCDC124 (UniProt Q96CT7)	0.944 ± 0.1
UniProt Q96GN5 and related entries	1.06 ± 0.18
PGAM5 (UniProt Q96HS1)	0.989 ± 0.046
NSUN4 (UniProt Q96CB9)	0.99 ± 0.016
UniProt Q96EZ8 and related entries	1.05 ± 0.1
MRPL38 (UniProt Q96DV4)	0.966 ± 0.067
UniProt Q96GM8 and related entries	1.11 ± 0.066

same assay, conditions: concentration: 1mM

Target	NP40-soluble protein abundance
SENP8 (UniProt Q96LD8)	0.97 ± 0.057
ZNF512B (UniProt Q96KM6)	1.01 ± 0.04
UniProt Q96IX5	0.875 ± 0.049
ZNF48 (UniProt Q96MX3)	1.11 ± 0.069
UniProt Q96LT9 and related entries	1.31 ± 0.027
PUS7 (UniProt Q96PZ0)	0.969 ± 0.059
UniProt Q96N16 and related entries	1.17 ± 0.24
UniProt Q96JM3	1.02 ± 0.043
UniProt Q96HN2-2|Q96HN2	0.919 ± 0.042
TGS1 (UniProt Q96RS0)	0.969 ± 0.087
COG8 (UniProt Q96MW5)	0.938 ± 0.057
UniProt Q96G25 and related entries	1 ± 0.11
SRPK1 (UniProt Q96SB4)	1.31 ± 0.091
CDK5RAP3 (UniProt Q96JB5)	0.997 ± 0.041
UniProt Q96II8 and related entries	1.17 ± 0.11
UniProt Q96KB5 and related entries	1 ± 0.038

Target	NP40-soluble protein abundance
UniProt Q96QF0 and related entries	0.996 ± 0.032
UniProt Q96NT0 and related entries	0.832 ± 0.11
PINX1 (UniProt Q96BK5)	1.52 ± 0.023
UniProt Q96CN4 and related entries	0.985 ± 0.035
PNKP (UniProt Q96T60)	1.04 ± 0.02
UniProt Q96P11-2	1.05 ± 0.039
UniProt Q96T23 and related entries	1.48 ± 0.043
ITPKC (UniProt Q96DU7)	0.986 ± 0.048
ATG4C (UniProt Q96DT6)	1.036 ± 0.003
CCDC124 (UniProt Q96CT7)	1.08 ± 0.15
UniProt Q96GN5 and related entries	1.09 ± 0.19
PGAM5 (UniProt Q96HS1)	1.1 ± 0.037
UniProt Q96EZ8 and related entries	1.08 ± 0.04
MRPL38 (UniProt Q96DV4)	1.04 ± 0.035
UniProt Q96GM8 and related entries	1.06 ± 0.095

Reference: the supplement of paper PMC6411743
